Assay results from US20120141505A1 (published 2012).
No constants are given. Whether binding was seen depends on the method and setting. Binding seen in cells or lysates may run through a third protein. Some results given as binding are weak or reduced against the parent protein; the word gives no strength. For part of these data: Sequences can lack the tags named with a protein.

Chains of the proteins cited; added tags and fusions are not shown. Lines headed by an entry give the natural chain unless they say otherwise; changes in a name come on top.
UniProt P15391: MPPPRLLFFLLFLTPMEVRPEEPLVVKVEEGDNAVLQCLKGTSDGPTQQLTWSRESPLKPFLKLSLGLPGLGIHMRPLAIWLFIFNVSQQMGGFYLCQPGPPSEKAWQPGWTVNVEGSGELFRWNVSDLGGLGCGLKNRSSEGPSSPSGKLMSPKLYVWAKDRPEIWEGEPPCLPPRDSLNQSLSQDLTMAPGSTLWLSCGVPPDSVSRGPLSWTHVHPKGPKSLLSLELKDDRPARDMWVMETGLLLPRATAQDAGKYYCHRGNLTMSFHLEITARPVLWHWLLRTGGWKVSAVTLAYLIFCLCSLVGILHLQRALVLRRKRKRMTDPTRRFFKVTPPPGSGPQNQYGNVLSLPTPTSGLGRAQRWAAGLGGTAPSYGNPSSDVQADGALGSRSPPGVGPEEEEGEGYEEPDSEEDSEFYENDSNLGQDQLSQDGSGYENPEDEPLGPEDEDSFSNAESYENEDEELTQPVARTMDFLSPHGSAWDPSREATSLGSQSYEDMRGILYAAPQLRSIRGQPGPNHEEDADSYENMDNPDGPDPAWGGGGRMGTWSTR

B1: purified soluble recombinant human CD19-L protein (6xHis-tagged, baculovirus/Sf21) (ligand, not shown: small tags and cut ends)
chain: MYMSMTEPSQDYVPASQSYPGPSLESEDFNIPPITPPSLQDHSLVHLNEVESGYHSLCHPMNHNGLLPFHPQNMDLPEITVSNMLGQDGTLLSNSISVMPDIRNPEGTQYSSHPQMAAMRPRGQPAQIRQQPGMMPHGQLTTINQSQLSAQLGLNMGGSNVPHNSPSPPGSKSATPSPSSSVHEDEGDDTSKINGGEKRPASDMGKKPKTPKKKKKKDPNEPQKPVSAYALFFRDTQAAIKGQNPNATFGEVSKIVASMWDGLGEEQKQVYKKKTEAAKKEYLKQLAAYRASLVSKSYSEPVDVKTSQPPQLINSKPSVFHGPSQAHSALYLSSHYHQQPGMNPHLTAMHPSLPRNIAPKPNNQMQVTVSIANMAVSPPPPLQISPPLHQHLNMQQHQPLTMQQPLGNQLPMQVQSALHSPTMQQGFTLQPDYQTIINPTSTAAQVVTQAMEYVRSGCRNPPPQPVDWNNDYCSSGGMQRDKALYLT
B2: native CD19-L from human lymphoid cell lines (MOLT-3, JURKAT, NALM-6, BCL-1 lysates) (ligand)
chain: B1 chain

What was measured:
[1] = target: 95-kDa native CD19 co-receptor protein in lysates of CD19+ human B-lineage lymphoid cell lines (BCL-1, NALM-6, DAUDI, RAMOS) (human) (UniProt P15391); experiment: pull-down from cell lysates with CD19-L on nickel beads, anti-CD19 immunoblot
[2] = target: maltose-binding protein (MBP)-CD19ECD fusion protein (E. coli; human) (UniProt P15391); experiment: figure legend covering pull-downs, flow cytometry and microscopy
[3] = target: maltose-binding protein (MBP)-CD19ECD fusion protein (E. coli; human) (UniProt P15391); experiment: pull-down from cell lysates with MBP-CD19ECD on amylose beads, anti-CD19-L immunoblot

Binder	binding [1]	binding [2]	binding [3]
B1	binds		
B2		binds	binds
